For one molecule, binding results are on record in US20230399390A1.

No constants are given. Whether binding was seen depends on the method and setting. Some entries that bind do so weakly or less than the wild type.

The test deals with T1, rat Nogo-A d20plus region, recombinantly produced in E. coli (rat) (UniProt Q9JK11).
T1 sequence (looked up): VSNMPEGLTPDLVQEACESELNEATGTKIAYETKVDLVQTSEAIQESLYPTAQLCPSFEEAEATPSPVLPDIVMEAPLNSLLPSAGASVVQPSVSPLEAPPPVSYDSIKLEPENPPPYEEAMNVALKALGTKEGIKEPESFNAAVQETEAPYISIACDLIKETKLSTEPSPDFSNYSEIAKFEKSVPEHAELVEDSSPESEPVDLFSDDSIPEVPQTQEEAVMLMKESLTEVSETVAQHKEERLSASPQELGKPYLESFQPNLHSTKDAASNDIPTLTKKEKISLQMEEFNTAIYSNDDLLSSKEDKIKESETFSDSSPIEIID
Put plainly: ELISA.

B1: anti-Nogo-A specific human antibody NG034 (antibody, V domains shown)
VH: EVQLVETGGGLVPPGGSLRLSCAASGFTFTNYSMHWVRLAPGKRLEYISAISSDGGDPFYASSVKGRVAISRDNSKKTLYLQMGRLRPEDTAVYYCVSDAFDVWGQGTMVTVSS
VL: EIVLTQSPLSLSVTLGQPASISCRSSQSLLYSNGNTYLNWFQQRPGQSPRRLLYRVSNRDSGVPDRFSGSGSGTHFTLKISRVEAEDVGVYYCMQGTHWPRTFGQGTKVEIK
With B1, the binding result is given as “binds”.
